From PubChem BioAssay AID540276 (National Center for Advancing Translational Sciences (NCATS), 2011)
Hit rate of the full screen: of about 300,000 compounds, about 5,400 (1.8%) were called active. Inconclusive results, whose numbers are uncertain, are shown with a selection of clear calls. Calls follow the shape of the full dose curve; tested in HEK293 cells. Potencies of inconclusive entries are doubtful fits and often do not repeat.

experiment: qHTS for inhibitors of binding or entry into cells for Marburg Virus; details: Marburg virus pseudotyped entry inhibition, cell reporter; series mostly up to 37.8 µM
Potency is read from the fitted curve at half-maximal effect.

| SMILES | Potency |
| --- | --- |
| COc1ccccc1N1CCN(Cc2cccc(OC)c2OC)CC1 | inconclusive: 7.3 µM [inhibitor, partial curve] |
| COC(=O)CC1=C(C(=O)OC)[C@H](c2ccc3c(c2Cl)OCO3)C(C#N)=C(N)O1 | inactive |
| N#C/C(=C\c1ccc(O)c(Br)c1)C(=O)NCc1ccccc1 | inconclusive: 14.1 µM [inhibitor, single point] |
| C[C@@H]1C(c2ccccc2)=CC(=O)c2nc3ccccc3cc2[C@@H]1C(=O)N1CCCC1 | inactive |
| O=C(CN(c1cc(Cl)ccc1Cl)S(=O)(=O)c1ccccc1)N1CCOCC1 | inactive |
| CCOc1ccccc1CNC(=O)CCCn1ncn2c(cc3occc32)c1=O | inactive |
| COc1ccc(N(CC(=O)NCc2ccccc2Cl)S(=O)(=O)c2c(C)nn(C)c2C)cc1 | inactive |
| O=C(O)/C(=C\c1ccc(C(F)(F)F)cc1)c1ccc(S(=O)(=O)N2CCCC2)s1 | inconclusive: 31.6 µM [activator, single point] |
| Cn1c(=O)c(=O)n(C)c2cc(NC(=O)c3cccc(F)c3)c(Cl)cc21 | inactive |
| Cc1ccc(C(=O)N[C@H](C(=O)Nc2ccc(N3CCOCC3)cc2)C(C)C)cc1 | inconclusive: 11.2 µM [activator, single point] |
| CCCCCC(=O)N1CCCC(c2nc(-c3ccc(OC)cc3)no2)C1 (stereo unspecified) | inconclusive: 20.6 µM [activator, partial curve, poor fit] |
| CC(C)c1ccc(N=C(N)N=C(N)N)cc1 | inconclusive: 35.5 µM [inhibitor, partial curve, poor fit] |
| O=C(O)c1cc(OCc2ccccc2)cc(OCc2ccccc2)c1 | inactive |
| Cc1c(Cc2ccccc2)sc(NC(=O)/C=C/c2cccc3ccccc23)c1C(N)=O | inconclusive: 1.58 µM [inhibitor, full curve] |
| COc1ccccc1Oc1ccc(N/C=C/C(=O)c2ccc(C)o2)cc1 | inconclusive: 1 µM [activator, full curve, poor fit] |
| CC(=O)c1cccc(Nc2nc(-c3sc(C)nc3C)cs2)c1 | inconclusive: 17.8 µM [inhibitor, single point] |
| CCOc1ccc(C(=O)Nc2cccc(-c3ccc(N4CCOCC4)nn3)c2)cc1OCC | inconclusive: 17.8 µM [inhibitor, single point] |
| Clc1ccc(SCc2cc(N3CCOCC3)nc(-c3ccccn3)n2)cc1 | inconclusive: 5.62 µM [inhibitor, full curve, poor fit] |
| COc1ccccc1NC(=O)C(=O)NCCCN1CCCC1=O | inconclusive: 0.316 µM [inhibitor, partial curve, poor fit] |
| C/C(=N\NC(=O)c1c(C)nc2ccccn12)c1ccc(O)cc1O | inactive |
| Cc1noc(C)c1C(=O)N1CCC(C(=O)c2ccccc2)CC1 | inactive |
| O=C(CON=C1c2ccccc2-c2ccccc21)NC12CC3CC(CC(C3)C1)C2 | inconclusive: 22.4 µM [inhibitor, single point] |
| O=C(NN=C1CCN(Cc2ccccc2)CC1)c1ccccc1O | inactive |

Looked up one by one from the entries so far:

| SMILES | Potency |
| --- | --- |
| N#C/C(=C\c1ccc(O)c(Br)c1)C(=O)NCc1ccccc1 | inconclusive: 14.1 µM [inhibitor, single point] |
| O=C(O)c1cc(OCc2ccccc2)cc(OCc2ccccc2)c1 | inactive |
| COc1ccccc1NC(=O)C(=O)NCCCN1CCCC1=O | inconclusive: 0.316 µM [inhibitor, partial curve, poor fit] |

Carrying on.

| SMILES | Potency |
| --- | --- |
| CCOC(=O)c1c[nH]n(-c2ccccc2)c1=O | inactive |
| CCN(CCn1cccn1)C(=O)CCc1nnc(CCCc2ccccc2)o1 | inconclusive: 6.31 µM [activator, single point] |
| COc1ccc(Nc2nc(-c3cccs3)cs2)cc1 | inconclusive: 0.073 µM [activator, single point] |
| FC(F)(F)c1ccnc(N2CCN(Cc3cnc(-c4ccccc4)[nH]3)CC2)c1 | inconclusive: 35.5 µM [inhibitor, single point] |
| COc1ccc(N(C(C)C(=O)Nc2ccc(S(=O)(=O)N3CCCCC3)cc2)S(C)(=O)=O)cc1 (stereo unspecified) | inconclusive: 17.8 µM [inhibitor, single point] |
| Cc1ccc(S(=O)(=O)n2nc(C)c(Br)c2C)c(C)c1C | inconclusive: 6.31 µM [inhibitor, partial curve, poor fit] |
| O=C(Nc1ccc2c(c1)OCCO2)c1ccc(Br)o1 | inconclusive: 15.8 µM [inhibitor, single point] |
| CCSc1nnc(NC(=O)Nc2cccc(C)c2)s1 | inconclusive: 29.1 µM [inhibitor, single point] |
| Cc1cccc(C)c1NC(=O)CNC(=O)c1ccc2c(c1)OCCO2 | inconclusive: 0.112 µM [activator, full curve, poor fit] |
| CCc1ccc2c(CN(C)Cc3ccc(OC(F)F)c(OC)c3)cc(=O)oc2c1 | inconclusive: 14.1 µM [inhibitor, partial curve, poor fit] |
| CC(=O)NCCNc1ccc([N+](=O)[O-])cn1 | inactive |
| Cc1ccc(Cc2cnc(N3C(=N)SC(c4ccccc4)C3=O)s2)cc1 (stereo unspecified) | inconclusive: 1.26 µM [activator, single point] |
| O=C(NN1C(=O)C2C3C=CC(O3)C2C1=O)c1ccncc1 (stereo unspecified) | inconclusive: 0.708 µM [inhibitor, single point] |
| COCCn1c(SCC(=O)N2CC(=O)Nc3ccccc32)nc2ccccc2c1=O | inactive |
| Cc1ccc(-n2nnnc2-c2cnc(N3CCCC3)nc2C(F)(F)F)cc1 | inactive |
| CC(=O)c1cccc(N(C(=O)c2ccco2)C(C(=O)NC2CCCC2)c2cccs2)c1 (stereo unspecified) | inconclusive: 11.2 µM [inhibitor, single point] |
| CCN(Cc1ccccc1)C(=O)c1c(-c2ccccc2Cl)noc1C | inconclusive: 3.98 µM [activator, partial curve, poor fit] |
| CCCCn1c(-c2ccco2)nc2oc3ccccc3c(=O)c2c1=O | inactive |
| Cc1[nH]c(-c2ccc(F)cc2)cc1C(=O)N1CCN(c2ccccc2F)CC1 | inactive |
| CC1(C)N=C(c2ccc(F)cc2)C(=O)N1CC(=O)Nc1ccccc1Cl | inactive |
| CCCC(C)NC(=O)C1CCN(S(=O)(=O)c2ccccc2)CC1 (stereo unspecified) | inactive |
| CCCC(=O)Nc1nc2c(s1)CC(C(C)(C)C)CC2 (stereo unspecified) | inactive |
| CC(C)c1ccc(N(CC(=O)NCCSCc2ccco2)S(C)(=O)=O)cc1 | inconclusive: 6.31 µM [inhibitor, single point] |
